Assay results from PubChem BioAssay (NCATS).
Inconclusive results, whose numbers are uncertain, are shown with a selection of clear calls. Where the call is inconclusive, the potency comes from a doubtful curve fit. Calls of active or inactive are those of the source. Calls follow the shape of the dose curve; as a rule, active = well fitted curve in the direction sought with a large enough effect; inconclusive = small, poorly fitted or top-dose-only effect, or another doubt; inactive = no such curve, though single readings can be large; an effect the other way counts as inactive or inconclusive.

Columns and labels:
[1] = Quantitative High-Throughput drug screen in 47 multiple myeloma cell lines against the NCATS MIPE library collection: KHM11_PLB cell viability assay (AID 1918962); conditions: KHM11 myeloma cell viability, CellTiter-Glo ATP luminescence, 48 h; series mostly up to 45.8 µM; also: nearly all actives have a fitted effect of over 35% in size
Method in brief: (§1)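 Luminescent ATP measurement with CellTiter-Glo gives viability, scaled between DMSO-only wells (100%) and media-only wells (0%). Cells, 500 per well, faced library compounds for 48 hours at 37C.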

[2] = Quantitative High-Throughput drug screen in 47 multiple myeloma cell lines against the NCATS MIPE library collection: JIM3_ECACC cell viability assay (AID 1918963; also: nearly all actives have a fitted effect of over 35% in size)
Method in brief: as §1

[3] = Quantitative High-Throughput drug screen in 47 multiple myeloma cell lines against the NCATS MIPE library collection: JIM1_ECACC cell viability assay (AID 1918964); conditions: JIM1 myeloma viability, CellTiter-Glo ATP luminescence, 48 h; viability (% of DMSO): at 45.8 µM (top of the series)
Method in brief: (§2)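 Inhibition of cell viability is measured here. Each line was plated at 500 cells per well, treated with MIPE 4.0 drugs, kept 48 hours at 37C, then assayed for ATP content by CellTiter-Glo luminescence.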

[4] = Quantitative High-Throughput drug screen in 47 multiple myeloma cell lines against the NCATS MIPE library collection: INA6_PLB cell viability assay (AID 1918965; also: nearly all actives have a fitted effect of over 55% in size); conditions: INA6 myeloma viability, CellTiter-Glo ATP luminescence, 48 h; series mostly up to 45.8 µM
Method in brief: (§3)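 Steps: seed 500 cells per well; pin-transfer MIPE 4.0 library; incubate 48 h at 37C, 5% CO2, humidified; add CellTiter-Glo, 5 min room temperature; read luminescence.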

[5] = Quantitative High-Throughput drug screen in 47 multiple myeloma cell lines against the NCATS MIPE library collection: JJN3_DSMZ cell viability assay (AID 1918966; also: nearly all actives have a fitted effect of over 50% in size)
Method in brief: as §2

[6] = Quantitative High-Throughput drug screen in 47 multiple myeloma cell lines against the NCATS MIPE library collection: H1112_PLB cell viability assay (AID 1918967; also: nearly all actives have a fitted effect of over 30% in size)
Method in brief: as §2

[7] = Quantitative High-Throughput drug screen in 47 multiple myeloma cell lines against the NCATS MIPE library collection: Karpas25_ECACC cell viability assay (AID 1918968; also: nearly all actives have a fitted effect of over 35% in size)
Method in brief: as §2

[8] = Quantitative High-Throughput drug screen in 47 multiple myeloma cell lines against the NCATS MIPE library collection: KMS27_JCRB cell viability assay (AID 1918970); conditions: KMS27 myeloma cells, CellTiter-Glo ATP viability, 48 h; viability (% of DMSO): at 45.8 µM (top of the series); also: nearly all actives have a fitted effect of over 30% in size
Method in brief: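 Luminescent ATP read-out (CellTiter-Glo, 5 min at room temperature) after 48 h compound exposure of 500 KMS27_JCRB cells per well; DMSO wells define full viability and media-only wells zero.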

[9] = Quantitative High-Throughput drug screen in 47 multiple myeloma cell lines against the NCATS MIPE library collection: KMS12BM_JCRB cell viability assay (AID 1918971); conditions: KMS12BM myeloma viability, CellTiter-Glo ATP, 48 h; viability, % of DMSO: at 45.8 µM (top of the series); also: nearly all actives have a fitted effect of over 35% in size
Method in brief: as §1

[10] = Quantitative High-Throughput drug screen in 47 multiple myeloma cell lines against the NCATS MIPE library collection: KMS12PE_JCRB cell viability assay (AID 1918972); conditions: KMS12PE myeloma viability, CellTiter-Glo ATP, 48 h; viability: at 45.8 µM (top of the series); also: nearly all actives have a fitted effect of over 30% in size
Method in brief: as §3

Measured: Potency
Potency is read from the fitted curve at half-maximal effect.

COc1cc(C=CC(=O)O)ccc1O
inactive: [1] | [5] | [8]
inconclusive: [2] 16.6 µM [cytotoxic, partial curve] | [3] 0.0053 µM [rising, full curve, poor fit] | [4] 4.18 µM [cytotoxic, partial curve, poor fit] | [6] 0.0019 µM [rising, full curve, poor fit] | [7] 0.0066 µM [rising, full curve, poor fit] | [9] 6.62 µM [rising, partial curve, poor fit]

CCN(CCO)CCCOc1ccc2c(Nc3cc(CC(=O)Nc4cccc(F)c4)[nH]n3)ncnc2c1
inactive: [1] | [2]
inconclusive: [3] 0.264 µM [rising, full curve, poor fit]

CS(=O)(=O)Oc1ccc2c(NC(N)=O)c(C(=O)c3ccc(Cl)cc3Cl)oc2c1
active: [4] 5.26 µM | [7] 4.69 µM
inconclusive: [1] 37.2 µM [cytotoxic, single point] | [2] 37.2 µM [cytotoxic, single point] | [3] 10.5 µM [cytotoxic, full curve, poor fit] | [5] 0.0037 µM [rising, full curve, poor fit] | [8] 7.43 µM [cytotoxic, partial curve, poor fit]
inactive: [9]

CC(=O)N[C@@H]1[C@H](O[C@@H]2c3ccc(c(Cl)c3)Oc3cc4cc(c3O[C@H]3O[C@H](CO)[C@@H](O)[C@H](O)[C@H]3NC(=O)CCCCCCCC(C)C)Oc3ccc(cc3Cl)C[C@H]3NC(=O)[C@H](N)c5ccc(O)c(c5)Oc5cc(O)cc(c5)[C@H](NC3=O)C(=O)N[C@H]4C(=O)N[C@H]3C(=O)N[C@@H]2C(=O)N[C@@H](C(=O)O)c2cc(O)cc(O[C@H]4O[C@H](CO)[C@@H](O)[C@H](O)[C@H]4O)c2-c2cc3ccc2O)O[C@H](CO)[C@@H](O)[C@@H]1O
inconclusive: [1] 6.62 µM [rising, partial curve] | [3] 0.0105 µM [rising, full curve, poor fit] | [5] 0.0187 µM [rising, full curve, poor fit] | [6] 0.0012 µM [rising, full curve, poor fit]
inactive: [2] | [4] | [8]

CCN(CC)CCCCNc1nc2cc(Cl)c(Cl)cc2nc1-c1ccc(-c2cccs2)s1
active: [1] 10.5 µM | [2] 8.33 µM | [3] 9.35 µM | [4] 4.69 µM

CNC(=O)c1c(-c2ccc(F)cc2)oc2cc(N(CCO)S(C)(=O)=O)c(C3CC3)cc12
inconclusive: [1] 18.7 µM [cytotoxic, partial curve] | [2] 18.7 µM [cytotoxic, partial curve, poor fit] | [3] 14.8 µM [cytotoxic, partial curve, poor fit] | [4] 20.9 µM [cytotoxic, partial curve, poor fit] | [5] 0.0526 µM [cytotoxic, full curve, poor fit] | [6] 23.5 µM [cytotoxic, single point] | [8] 16.6 µM [cytotoxic, partial curve, poor fit] | [9] 11.8 µM [cytotoxic, partial curve, poor fit] | [10] 16.6 µM [cytotoxic, partial curve, poor fit]

OCCn1cc(-c2ccc3c(c2)CCC3=NO)c(-c2ccncc2)n1
inactive: [2] | [5] | [9]
inconclusive: [3] 16.6 µM [cytotoxic, partial curve, poor fit] | [4] 5.26 µM [cytotoxic, partial curve, poor fit] | [6] 33.2 µM [cytotoxic, single point] | [8] 10.5 µM [cytotoxic, partial curve, poor fit]
active: [1] 4.69 µM

CCCCOCCOc1nc(-c2ccc(C(=O)O)c(F)c2)sc1C
inconclusive: [1] 0.0132 µM [rising, full curve, poor fit] | [3] 0.0012 µM [cytotoxic, full curve, poor fit] | [4] 20.9 µM [cytotoxic, partial curve, poor fit] | [5] 0.148 µM [cytotoxic, partial curve, poor fit] | [7] 37.2 µM [cytotoxic, single point]
inactive: [8] | [10]
active: [2] 0.372 µM

CC(=O)O[C@H]1C(=O)[C@@]2(C)C([C@H](OC(=O)c3ccccc3)[C@]3(O)C[C@H](OC(=O)[C@H](O)[C@@H](NC(=O)c4ccccc4)c4ccccc4)C(C)=C1C3(C)C)[C@]1(OC(C)=O)CO[C@@H]1C[C@@H]2O (stereo not given in full)
inconclusive: [3] 7.43 µM [rising, full curve, poor fit] | [4] 8.33 µM [cytotoxic, partial curve, poor fit] | [5] 16.6 µM [cytotoxic, partial curve, poor fit] | [6] 0.0042 µM [cytotoxic, full curve] | [8] 8.33 µM [rising, full curve, poor fit] | [10] 8.33 µM [rising, full curve, poor fit]
inactive: [1] | [2] | [7]

CC=CC1=C(C(=O)O)N2C(=O)[C@H](NC(=O)[C@H](N)c3ccc(O)cc3)[C@@H]2SC1
inconclusive: [1] 37.2 µM [cytotoxic, single point] | [2] 37.2 µM [cytotoxic, single point] | [3] 3.32 µM [cytotoxic, single point] | [4] 18.7 µM [cytotoxic, partial curve, poor fit] | [6] 29.6 µM [cytotoxic, single point] | [7] 33.2 µM [cytotoxic, single point] | [8] 13.2 µM [cytotoxic, partial curve, poor fit]
inactive: [5] | [9] | [10]

Nc1nc(N)nc(-c2cc(Cl)ccc2Cl)n1
inconclusive: [3] 0.0019 µM [cytotoxic, full curve, poor fit] | [4] 37.2 µM [cytotoxic, single point] | [7] 26.4 µM [cytotoxic, single point]
not listed: [6]
inactive: all other assays above

CCN1CCCC1CNC(=O)c1cc(S(N)(=O)=O)ccc1OC (stereo not given)
inactive: [1] | [3] | [10]
inconclusive: [2] 0.0053 µM [rising, full curve, poor fit] | [4] 0.0209 µM [rising, full curve] | [5] 0.001 µM | [6] 0.0166 µM [rising, full curve] | [8] 0.0187 µM [rising, full curve, poor fit] | [9] 4.18 µM [rising, partial curve, poor fit]

CC(C)(C)c1cc(C(C)(C)C)c(NC(=O)c2c[nH]c3ccccc3c2=O)cc1O
inactive: [1] | [2] | [4] | [7]
inconclusive: [3] 0.0187 µM [rising, full curve, poor fit] | [5] 14.8 µM [cytotoxic, partial curve, poor fit] | [8] 0.0019 µM [cytotoxic, full curve, poor fit] | [9] 20.9 µM [cytotoxic, single point]

N#Cc1c(NC(=O)c2cccc3ccccc23)sc2c1CCCC2
inconclusive: [1] 0.662 µM [cytotoxic, full curve]

CC(C)(C)C(=O)Oc1ccc(S(=O)(=O)Nc2ccccc2C(=O)NCC(=O)O)cc1
inactive: [2] | [3] | [9]
inconclusive: [1] 37.2 µM [cytotoxic, single point] | [4] 37.2 µM [cytotoxic, partial curve, poor fit] | [5] 14.8 µM [cytotoxic, partial curve, poor fit] | [7] 37.2 µM [cytotoxic, single point]

CCc1ccc(CCOc2ccc(CC3SC(=O)NC3=O)cc2)nc1 (stereo not given)
inconclusive: [5] 23.5 µM [cytotoxic, partial curve, poor fit] | [9] 13.2 µM [cytotoxic, partial curve, poor fit]
inactive: [1] | [2] | [3] | [4] | [6]

CN(C)C(=O)c1ccc(S(=O)(=O)c2ccc(NC(=O)[C@@](C)(O)C(F)(F)F)c(Cl)c2)cc1
active: [8] 14.8 µM
inconclusive: [1] 11.8 µM [cytotoxic, partial curve, poor fit] | [2] 20.9 µM [cytotoxic, partial curve] | [3] 10.5 µM [cytotoxic, full curve, poor fit] | [4] 9.35 µM [cytotoxic, partial curve, poor fit] | [5] 18.7 µM [cytotoxic, partial curve, poor fit] | [6] 5.26 µM [cytotoxic, full curve] | [9] 16.6 µM [cytotoxic, partial curve, poor fit] | [10] 2.96 µM [cytotoxic, full curve]
